Measured values published in PMC11341764, “Sae2 controls Mre11 endo- and exonuclease activities by different mechanisms” (Nature Communications, 2024).
No constants are given. Whether binding was seen depends on the method and setting. For some assays here: In cells and extracts the contact can be indirect. Some entries that bind do so weakly or less than the wild type. Sequences can lack the tags named with a protein. One block for each binder: values may come before it.

Experiments:
[1] = target: T1, Rad50 (wild-type, untagged) (budding yeast (endogenous in yeast cells)) (UniProt P12753); assay: co-IP; extracts of yeast cells carrying HA-tagged MRE11 and untagged Rad50 variants; immunoprecipitation with anti-Rad50 antibodies, immunoblotting with anti-HA or anti-Rad50
T1 sequence: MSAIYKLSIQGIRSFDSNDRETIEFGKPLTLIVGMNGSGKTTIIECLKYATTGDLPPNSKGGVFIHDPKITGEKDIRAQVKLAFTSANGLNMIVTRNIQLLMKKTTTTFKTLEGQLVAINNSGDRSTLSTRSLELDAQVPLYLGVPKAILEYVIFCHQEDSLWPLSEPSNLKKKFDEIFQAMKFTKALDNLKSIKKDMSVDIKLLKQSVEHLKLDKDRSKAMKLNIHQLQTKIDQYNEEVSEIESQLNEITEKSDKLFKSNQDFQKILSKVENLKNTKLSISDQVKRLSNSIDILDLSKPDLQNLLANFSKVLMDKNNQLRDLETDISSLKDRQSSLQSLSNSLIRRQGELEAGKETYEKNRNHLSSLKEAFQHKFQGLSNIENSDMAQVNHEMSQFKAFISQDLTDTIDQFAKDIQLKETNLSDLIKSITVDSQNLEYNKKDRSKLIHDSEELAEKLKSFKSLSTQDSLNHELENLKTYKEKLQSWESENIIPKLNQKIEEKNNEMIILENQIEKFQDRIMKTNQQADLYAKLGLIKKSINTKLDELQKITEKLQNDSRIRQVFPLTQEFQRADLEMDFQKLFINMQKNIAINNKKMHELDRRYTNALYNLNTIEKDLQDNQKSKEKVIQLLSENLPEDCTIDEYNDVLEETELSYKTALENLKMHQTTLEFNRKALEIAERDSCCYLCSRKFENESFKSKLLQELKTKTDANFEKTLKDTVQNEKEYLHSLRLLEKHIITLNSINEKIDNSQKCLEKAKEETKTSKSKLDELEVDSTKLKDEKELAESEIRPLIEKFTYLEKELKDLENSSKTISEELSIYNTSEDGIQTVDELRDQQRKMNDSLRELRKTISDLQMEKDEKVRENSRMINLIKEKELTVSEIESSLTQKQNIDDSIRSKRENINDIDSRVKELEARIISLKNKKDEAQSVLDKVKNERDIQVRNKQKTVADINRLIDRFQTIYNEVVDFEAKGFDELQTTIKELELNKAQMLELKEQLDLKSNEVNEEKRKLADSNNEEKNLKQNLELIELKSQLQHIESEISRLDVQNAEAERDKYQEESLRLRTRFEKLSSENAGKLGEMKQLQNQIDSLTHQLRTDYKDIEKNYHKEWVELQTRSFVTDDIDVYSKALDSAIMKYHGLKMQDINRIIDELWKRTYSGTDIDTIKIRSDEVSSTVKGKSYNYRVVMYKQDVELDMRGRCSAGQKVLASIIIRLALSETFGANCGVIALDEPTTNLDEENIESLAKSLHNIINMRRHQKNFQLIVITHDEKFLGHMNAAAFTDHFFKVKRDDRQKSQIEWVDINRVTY

His-tagged Mre11 (yeast) = target: T2, His-tagged Mre11 (yeast) (UniProt P32829); assay: co-purification by two affinity steps; His-tagged Mre11 and FLAG-tagged Xrs2 expressed in Sf9 cells; NiNTA and anti-FLAG affinity chromatography; Coomassie gel
T2 sequence: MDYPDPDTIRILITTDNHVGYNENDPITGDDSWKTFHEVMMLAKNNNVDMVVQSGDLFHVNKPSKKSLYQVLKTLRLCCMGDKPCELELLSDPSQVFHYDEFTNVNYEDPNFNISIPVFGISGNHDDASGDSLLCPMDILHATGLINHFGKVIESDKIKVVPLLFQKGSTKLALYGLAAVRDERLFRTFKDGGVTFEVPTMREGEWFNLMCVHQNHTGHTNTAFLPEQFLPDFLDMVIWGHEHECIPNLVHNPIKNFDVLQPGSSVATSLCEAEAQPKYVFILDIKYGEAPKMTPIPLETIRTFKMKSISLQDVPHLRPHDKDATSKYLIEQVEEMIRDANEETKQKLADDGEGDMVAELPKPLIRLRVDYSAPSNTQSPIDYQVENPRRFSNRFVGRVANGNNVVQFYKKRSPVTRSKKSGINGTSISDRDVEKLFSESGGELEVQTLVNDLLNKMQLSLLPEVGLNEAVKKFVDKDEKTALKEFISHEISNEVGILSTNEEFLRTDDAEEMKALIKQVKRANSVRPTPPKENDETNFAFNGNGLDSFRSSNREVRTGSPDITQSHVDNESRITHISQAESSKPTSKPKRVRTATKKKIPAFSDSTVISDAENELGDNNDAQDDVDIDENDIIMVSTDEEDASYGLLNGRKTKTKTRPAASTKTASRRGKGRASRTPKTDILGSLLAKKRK

binding [1]: binds
B1: HA-tagged Mre11 (protein, UniProt P32829 1-692)
chain: T2 sequence

binding (His-tagged Mre11 (yeast)): binds
B2: FLAG-tagged Xrs2 (protein, UniProt P33301 1-854)
chain: MWVVRYQNTLEDGSISFISCCLQAFKTYSIGRSSKNPLIIKNDKSISRQHITFKWEINNSSDLKHSSLCLVNKGKLTSLNKKFMKVGETFTINASDVLKSTIIELGTTPIRIEFEWINEVWNIPPHLTQFRTMLSEYGISTEISINDIPANLMISDYPKSEDNSIRELYALVSTIPMKKSRFLMELCNTLLPTSKTNLKFDEMWNDMISNPEYNVFDFDPNILLSKFMRLNNIRVLTTIKSEPRLSSLLRTFNINLFAFDNIDSLYKYVDSLEASTEYLILTTTDKKENGKILCTIKTMLTSIIDGTLSAVINMKGASSRTLDNGKFDQISEGMSTILKTSRAPEVEASPVVSKKRKLNRRRVLPLDSLDFFAGGLSTKTLSENRSLTDAKRLNCGAESKTVISSPNIAEADEKHAPFLQNALKPTEDIGKKSGHSSPGAIIVSSPNLGTVNTSEDSLDKSLQSHKLPQPSLPEVAGIGSQTISSNSADYETAAVNSMDDAEVTKNFRVNHHQNIEQPSKNIRKLSNYSREISSPLQENCKSPVKELSIKEKSGTPHAFVEAIQETKNREVKRVKSTIVELKDEELSEEAINQLKNLAIVEPSNNLLRKSFDSEGNKTSRTTEKWENSLMEPEWHKRKNFKTFVKVRPKSKAHKEEGKNNTQSSDFIRNAAFLITRNYVPLKKYSKKDTTTKWGTEENEDMFALTEMERFGSNTFMSDNINSNTIQKRSQALNRFTNEDSSNEGEEDSFSFSRCSGTAASVQPLKNKIFITDEDDLGDIDDKSDRLNHRENNRNLFVVKEMNLRPNLSEECSKQSRHSRSATSRSRGSFGASNNGDGDDDDDDGPKFTFKRRKG
